Results from US4728726A, “GRF analogs IIIb” (The Salk Institute for Biological Studies, priority 1986, dated 1988).
At least one peptide structure holds a part that was inferred or is arguable (an end, a ring closure or a residue). Square brackets hold non-standard residues; d marks the D form. Peptide text beside a SMILES is read from it. Nle = CCCC[C@H](N)C(=O)O; dNMeA = CN[C@H](C)C(=O)O

Tested on: cells of rat pituitary glands
Experiment: in vitro assay of growth hormone release from cultured rat pituitary cells (ir GH by radioimmunoassay)
Assay type: cell-based
Conditions: for Comparison %: potency for GH release relative to standard hGRF(1-40)-OH = 100%, equimolar concentrations, incubation 3 to 4 hours
Method: To determine the relative effectiveness of certain representative synthetic peptides to promote the release of growth hormone, in vitro assays are carried out using synthetic hpGRF(1-40)-OH as a standard in side-by-side comparison with equimolar concentrations of the representative analogs which have been synthesized. Cultures are used which include cells of rat pituitary glands removed some three to five days previously. Such cultures are considered optimal for the secretion of growth hormone and are used for the comparative testing, in the general manner described in Vale et al. Endocrinology, 91, 562-572 (1972) and as more particularly described in Vale et al. Endocrinology, 112, 1553-1555 (1983). Incubation with the substance to be tested is carried out for 3 to 4 hours, and aliquots of the culture medium are removed and processed to measure their contents in immunoreactive GH(ir GH) by a well-characterized radioimmunoassay.

Row | Structure (SMILES) | minimum effective concentration (in vitro GH release, rat pituitary cell culture) | Comparison %
1 | CCCC[C@H](NC(=O)[C@@H](NC(=O)[C@H](CC(=O)O)NC(=O)[C@H](CCC(N)=O)NC(=O)[C@H](CC(C)C)NC(=O)[C@H](CC(C)C)NC(=O)[C@H](CCCCN)NC(=O)[C@H](CCCNC(=N)N)NC(=O)[C@H](C)NC(=O)[C@H](CO)NC(=O)[C@H](CC(C)C)NC(=O)[C@H](CCC(N)=O)NC(=O)CNC(=O)[C@H](CC(C)C)NC(=O)[C@@H](NC(=O)[C@H](CCCCN)NC(=O)[C@H](CCCNC(=N)N)NC(=O)[C@H](Cc1ccc(O)cc1)NC(=O)[C@H](CO)NC(=O)[C@H](CC(N)=O)NC(=O)[C@@H](NC(=O)[C@H](Cc1ccccc1)NC(=O)[C@@H](NC(=O)[C@H](C)NC(=O)[C@H](CC(=O)O)NC(=O)[C@@H](C)N(C)C(=O)[C@@H](N)Cc1ccc(O)cc1)[C@@H](C)CC)[C@@H](C)O)C(C)C)[C@@H](C)CC)C(=O)N[C@@H](CC(N)=O)C(=O)N[C@@H](CCCNC(=N)N)C(=O)NCC [[D-NMA^2, Nle^27, Asn^28]-hGRF(1-29)-NHEt] (H-Y[dNMeA]DAIFTNSYRKVLGQLSARKLLQDI[Nle]NR-NHEt) | about 1 picomolar | 1805%
2 | CCCC[C@H](NC(=O)[C@@H](NC(=O)[C@H](CCC(=O)O)NC(=O)[C@H](Cc1c[nH]cn1)NC(=O)[C@H](CC(C)C)NC(=O)[C@H](CC(C)C)NC(=O)[C@H](CCCCN)NC(=O)[C@H](CCCNC(=N)N)NC(=O)[C@H](C)NC(=O)[C@H](CO)NC(=O)[C@H](CC(C)C)NC(=O)[C@H](CCC(N)=O)NC(=O)CNC(=O)[C@H](CC(C)C)NC(=O)[C@@H](NC(=O)[C@H](CCCNC(=N)N)NC(=O)[C@H](CCCNC(=N)N)NC(=O)[C@H](Cc1ccc(O)cc1)NC(=O)[C@H](CO)NC(=O)[C@H](CO)NC(=O)[C@@H](NC(=O)[C@H](Cc1ccccc1)NC(=O)[C@@H](NC(=O)[C@H](C)NC(=O)[C@H](CC(=O)O)NC(=O)[C@@H](C)N(C)C(=O)[C@@H](N)Cc1c[nH]cn1)[C@@H](C)CC)[C@@H](C)O)[C@@H](C)CC)[C@@H](C)CC)C(=O)N[C@@H](CC(N)=O)C(=O)N[C@@H](CCCNC(=N)N)C(N)=O [[D-NMA^2, Ser^18, Nle^27]-rGRF (1-29)-NH2] (H-H[dNMeA]DAIFTSSYRRILGQLSARKLLHEI[Nle]NR-NH2) |  | 262%
3 | CCCC[C@H](NC(=O)[C@@H](NC(=O)[C@H](CC(=O)O)NC(=O)[C@H](CCC(N)=O)NC(=O)[C@H](CC(C)C)NC(=O)[C@H](CC(C)C)NC(=O)[C@H](CCCCN)NC(=O)[C@H](CCCNC(=N)N)NC(=O)[C@H](C)NC(=O)[C@H](CO)NC(=O)[C@H](CC(C)C)NC(=O)[C@H](CCC(N)=O)NC(=O)CNC(=O)[C@H](CC(C)C)NC(=O)[C@@H](NC(=O)[C@H](CCCCN)NC(=O)[C@H](CCCNC(=N)N)NC(=O)[C@H](Cc1ccc(O)cc1)NC(=O)[C@H](CO)NC(=O)[C@H](CC(N)=O)NC(=O)[C@@H](NC(=O)[C@H](Cc1ccccc1)NC(=O)[C@@H](NC(=O)[C@H](C)NC(=O)[C@H](CC(=O)O)NC(=O)[C@@H](C)N(C)C(=O)[C@@H](N)Cc1c[nH]cn1)[C@@H](C)CC)[C@@H](C)O)C(C)C)[C@@H](C)CC)C(=O)N[C@@H](CO)C(=O)N[C@@H](CCCNC(=N)N)C(=O)NCC [[His^1, D-NMA^2, Nle^27]-hGRF(1-29)-NHEt] (H-H[dNMeA]DAIFTNSYRKVLGQLSARKLLQDI[Nle]SR-NHEt) |  | 256%
